# Measured values published in PubChem BioAssay AID1347076 (National Center for Advancing Translational Sciences (NCATS), 2019).
# In all, about 400,000 compounds went through this assay and about 13,000 (3.2%) were called active. The inconclusive results got no clear call from the source; some entries with a clear call stand among them for comparison. Calls come from the whole dose curve; as a rule, active = well fitted cell-killing curve with a large enough effect; inconclusive = small, poorly fitted or top-dose-only effect, or effect the other way; inactive = flat fitted curve, though single readings scatter. Where the call is inconclusive, the potency comes from a doubtful curve fit.
# Experiment: qHTS assay for MDR1-selective chemotherapeutics: Primary screen using the drug-selected MDR subline cells KB-V1; note: nearly all actives have a fitted effect of over 60% in size
# Conditions: KB-V1 MDR cells viability, CellTiter-Glo, 72 h; activity change, negative = cytotoxicity: at 46.1 µM (top of the series)
# Procedure, shortened: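 Drug-selected KB-V1 cells, grown in DMEM lacking phenol red with 10% FBS, receive compound titrations; after three days at 37 degrees C, surviving cell ATP is quantified by CellTiter-Glo luminescence and responses normalized and curve-fitted.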
# % is set by controls: 0 for no effect and ±100 for the full control effect; potency is the fitted concentration of half-maximal effect.
Compound,Potency,"activity change, negative = cytotoxicity"
CCSc1ncc(Cl)c(C(=O)Nc2sc3c(c2C(=O)OC)CCCC3)n1,"inconclusive: 29.1 µM [rising, single point]",
CCOc1ncccc1C(=O)Nc1cc(S(=O)(=O)N(CC)CC)ccc1N1CCOCC1,"inconclusive: 6.51 µM [cytotoxic, single point]",
S=c1ncc2n[nH]nc2[nH]1,"inconclusive: 18.4 µM [rising, single point]",
CCc1cccc(C)c1NC(=S)N(CCN(C)C)Cc1cccs1,"inconclusive: 7.31 µM [cytotoxic, partial curve]",
CCOc1ccc(N2CC(C(=O)NC3=NCCS3)CC2=O)cc1 (stereo not given),"inconclusive: 7.31 µM [rising, partial curve]",
CN1C(=O)[C@H]2[C@@H](/C=C/c3ccccc3)N3C(=O)CN(CCO)C(=O)[C@@]3(C)[C@H]2C1=O,,inactive: -8.29%
Cc1cc(OCC(=O)NCCCN2CCCC2=O)c2c(C)c(C)c(=O)oc2c1,"inconclusive: 29.1 µM [rising, single point]",
Cn1ncc2c(Nc3ccc4ccccc4c3)ncnc21,,inconclusive: -33% [cytotoxic]
CCCc1nc2ccccc2c(C(=O)OCC(=O)Nc2ccc(S(=O)(=O)N3CCOCC3)cc2)c1CC,active: 3.26 µM,
Brc1ccc(NCc2cccc3ccccc23)nc1,,inactive: 0%
Cc1onc(-c2ccccc2)c1C(=O)NC(=S)NNC(=O)c1ccco1,"inconclusive: 13 µM [cytotoxic, partial curve, poor fit]",
COC(=O)c1nccnc1N,,inactive: 1.53%
Clc1ccc(-c2cc3nc(NCc4cccc(Cl)c4)ccn3n2)cc1,,inactive: -0.114%
CCN(CCCNC(=O)C1c2ccccc2C(=O)N(CCOC)C1c1ccc(F)cc1)Cc1ccccc1 (stereo not given),"inconclusive: 23.1 µM [cytotoxic, partial curve]",
COc1ccccc1Cn1cc(C(=O)c2ccc(C)cc2)c(=O)c2cc3c(cc21)OCCO3,,inactive: 2.48%
O=C(CN1CCN(Cc2ccccc2)CC1)Nc1ccc(S(=O)(=O)N2CCOCC2)cc1,"inconclusive: 23.1 µM [cytotoxic, single point]",
CCOc1ccc(NC(=O)CC2C(=O)N(CC)C(=S)N2NC(=O)c2ccncc2)cc1 (stereo not given),"inconclusive: 4.11 µM [rising, full curve, poor fit]",
COc1ccccc1CNC(=O)Cn1ncn2c(cc3sccc32)c1=O,,inactive: 14.4%
Cc1ccc(Nc2c(-c3ccsc3)nc3c(C)cccn23)cc1,,inactive: -5.44%
O=C(COC(=O)c1nc(Cl)ccc1Cl)NC(=O)c1ccccc1,"inconclusive: 4.61 µM [rising, partial curve]",
CN(C)c1cccc(C(=O)N/N=C/c2ccoc2)c1,"inconclusive: 13 µM [rising, partial curve, poor fit]",
O=C1OCCN1C(=O)[C@H]1[C@H](c2ccc([N+](=O)[O-])cc2)C(c2cccc(Cl)c2)=NN1c1ccc(Br)cc1,,inactive: 0.0002%
CCCC(=O)Nc1ccc2c(c1)nc1n2CCN(C2CCCCC2)C1,"inconclusive: 14.6 µM [cytotoxic, partial curve, poor fit]",
CCN1CC(CN(C)Cc2nc(-c3ccc(C(F)(F)F)cc3)oc2C)CC1=O (stereo not given),"inconclusive: 16.4 µM [cytotoxic, single point]",

Compound,Potency,"activity change, negative = cytotoxicity"
CC(C)CC(C)c1cc(N)nc2nc3ccccc3n12 (stereo not given),"inconclusive: 23.1 µM [cytotoxic, partial curve, poor fit]",
O=C(c1cccc(NS(=O)(=O)c2cccc([N+](=O)[O-])c2)c1)N1CCOCC1,"inconclusive: 11.6 µM [rising, partial curve, poor fit]",
Cc1cccc(-n2cnc3c(sc4nc(N5CCOCC5)c5c(c43)CCCC5)c2=O)c1,"inconclusive: 8.2 µM [cytotoxic, partial curve, poor fit]",
Cc1c(NC(=O)C(C)Oc2ccc(Br)cc2Cl)c(=O)n(-c2ccccc2)n1C (stereo not given),"inconclusive: 0.58 µM [cytotoxic, full curve, poor fit]",
C(=N\n1cnnc1)/c1cccc(Oc2ccccc2)c1,,inactive: 7.71%
Cc1ccc(N/N=C(\Cc2nc3ccccc3[nH]2)c2ccccc2)cc1,active: 3.66 µM,
OCC1OC(n2cnc3c(=S)nc[nH]c32)CC1O (stereo not given),"inconclusive: 18.4 µM [cytotoxic, single point]",
O=C(Nc1ccc(F)cc1)c1ccc(-n2cncn2)c([N+](=O)[O-])c1,active: 11.6 µM,
Cn1nc(C(C)(C)C)cc1C(=O)N1CCCCC1c1cc(C(=O)Nc2ccccc2Cl)no1 (stereo not given),"inconclusive: 32.6 µM [cytotoxic, single point]",
O=C(C=Cc1ccco1)c1ccc2ccccc2c1,,inactive: -13.5%
CCOC(=O)c1nnn(-c2nonc2-n2cccc2)c1CCl,"inconclusive: 29.1 µM [cytotoxic, single point]",
CCCCNC(=O)C(=O)N/N=C/c1ccc(OCc2ccccc2)cc1,"inconclusive: 14.6 µM [cytotoxic, partial curve, poor fit]",
CCOc1cc(C(=O)OCC(=O)c2c(C)[nH]c3ccccc23)ccc1OCC(=O)N1CCOCC1,"inconclusive: 18.4 µM [cytotoxic, single point]",
CCCCCn1c(C(Cc2ccccc2)NC(=O)COC)nc2ccccc21 (stereo not given),"inconclusive: 20.6 µM [cytotoxic, single point]",
COc1ccccc1C(CNC(=O)CCNS(=O)(=O)c1ccc(Br)cc1)N1CCCC1 (stereo not given),,inactive: 10.9%
O=C(CSc1nnc(SCc2ccccc2)s1)N/N=C/c1c(Cl)cccc1Cl,"inconclusive: 18.4 µM [cytotoxic, single point]",
COc1cc2c(cc1NC(=O)COc1ccc(Cl)cc1Br)oc1ccccc12,"inconclusive: 13 µM [rising, partial curve, poor fit]",
O=C(NC(Cc1ccccc1)C(=O)N1CCN(c2ccccc2O)CC1)c1ccccc1 (stereo not given),,inactive: -17.6%
O=C(CCN1CCN(CCO)CC1)Nc1ccc(OCc2ccccc2)cc1,,inactive: 2.73%
CCOC(=O)C1=C(COC(=O)COc2cc(C)ccc2C)NC(=O)NC1C (stereo not given),"inconclusive: 8.2 µM [rising, partial curve, poor fit]",
Cc1nnc(SCC(=O)Nc2nsc(-c3ccc(Cl)cc3)n2)s1,"inconclusive: 20.6 µM [cytotoxic, single point]",
O=C(Nc1ccc2c(c1)Cc1ccccc1-2)c1cc2ccccc2o1,"inconclusive: 29.1 µM [cytotoxic, single point]",
O=S(=O)(Nc1cccc(C(F)(F)F)c1)c1ccc(-c2cnc(C3CC3)o2)cc1,active: 8.2 µM,
O=C(Nc1c(S(=O)(=O)c2ccc(Cl)cc2)csc1Br)c1ccccc1Cl,,inactive: -21.5%

Compound,Potency,"activity change, negative = cytotoxicity"
COc1ccc(Nc2ccc([N+](=O)[O-])cn2)cc1,"inconclusive: 14.6 µM [rising, partial curve]",
CC(C)C[C@H]1CNC(=S)N1CC1CCN(CCCCc2ccccc2)CC1,"inconclusive: 29.1 µM [rising, single point]",
CC(C)C(OC(=O)CN1C(=O)COc2ccccc21)C(=O)NC1CCCC1 (stereo not given),active: 6.51 µM,
CCOc1ccc(NC(=O)COc2cccc3cccnc23)cc1S(=O)(=O)N1CCCC1,active: 20.6 µM,
CC(/C=C/c1ccc2c(c1)OCO2)=N/NC(=O)c1ccncc1,"inconclusive: 20.6 µM [cytotoxic, single point]",
CCN(CC)c1ccc(NC(=O)c2ccccc2)cc1S(=O)(=O)Nc1ccccc1OC,active: 14.6 µM,
O=C(COc1ccc2c3c(c(=O)oc2c1)CCCC3)NCCCn1ccnc1,"inconclusive: 18.4 µM [rising, single point]",
CCn1c(COc2ccc(=O)n(-c3ccccc3)n2)n[nH]c1=S,,inactive: 14.9%
COc1ccc(-c2nc3ccccc3n(CC(C)C)c2=O)cc1,"inconclusive: 23.1 µM [cytotoxic, partial curve]",
COc1cc(Cl)c(C)cc1NC(=O)CSc1nnc(-c2ccccn2)n1Cc1ccco1,active: 2.31 µM,
O=C(NCCc1nc2ccccc2[nH]1)c1ccc(Cl)c([N+](=O)[O-])c1,"inconclusive: 18.4 µM [cytotoxic, single point]",
O=C(Nc1nnc(-c2ccc(Br)cc2)o1)c1ccco1,"inconclusive: 20.6 µM [cytotoxic, single point]",
COc1ccc(NC(=O)c2nc(C)c(C3(C)CC(c4cccnc4)=NO3)s2)cc1 (stereo not given),"inconclusive: 29.1 µM [cytotoxic, single point]",
CC(C)c1ccc(OCC(=O)Nc2c(C(=O)c3ccc(F)cc3)oc3ccccc23)cc1,,inactive: 22.2%
CCN(Cc1nc2ccccc2c(=O)[nH]1)Cc1cc(=O)oc2cc(C)c(C)cc12,"inconclusive: 20.6 µM [cytotoxic, single point]",
CSc1cc(C)n(-c2ccc(Cl)cc2)c(=S)c1C(C)=O,"inconclusive: 16.4 µM [cytotoxic, partial curve, poor fit]",
COc1ccc(S(=O)(=O)c2c(C(=O)c3ccc(C)c(C)c3)cnc3ccc(F)cc23)cc1,,inactive: 0%
C/C=C(/C)C(=O)OC1c2c(ccc3ccc(=O)oc23)OC(C)(C)C1OC(C)=O (stereo not given),,inactive: -11.8%
N#CCCN(CCC#N)C(=O)C1c2ccccc2Oc2ccccc21,,inactive: -2.22%
COc1cccc(-c2nnc(SCC(=O)Nc3cc(C)on3)o2)c1,,inactive: 0%
CCOC(=O)C(c1ccccc1)C(Nc1ccc(F)cc1)c1ccccn1 (stereo not given),"inconclusive: 16.4 µM [cytotoxic, partial curve]",
NC(=O)c1ccc(NC(=O)CN2C(=O)NC3(CCCCCCC3)C2=O)cc1,"inconclusive: 6.51 µM [rising, full curve, poor fit]",

# Shown with bars between the fields: part of the list above
Compound | Potency | activity change, negative = cytotoxicity
CC(C)c1ccc(OCC(=O)Nc2c(C(=O)c3ccc(F)cc3)oc3ccccc23)cc1 |  | inactive: 22.2%
CCN(Cc1nc2ccccc2c(=O)[nH]1)Cc1cc(=O)oc2cc(C)c(C)cc12 | inconclusive: 20.6 µM [cytotoxic, single point] | 
CSc1cc(C)n(-c2ccc(Cl)cc2)c(=S)c1C(C)=O | inconclusive: 16.4 µM [cytotoxic, partial curve, poor fit] | 
